A: 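Assay on Mycobacterium tuberculosis, filed only as a heat shock assay from Cornell; the read-out is not stated. The concentration is filed as 10 mM, unlikely as a test dose, so the dose is not known. The record gives no direction; compounds that gave an IC50 in retests scored well above the rest, so higher reads as stronger inhibition. Of about 69,000 compounds tested this way, about 930 (1.4%) reached 50% or more in at least one test.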
B: 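Methionyl-tRNA synthetase (putative), Leishmania donovani (UniProt E9BF75). Primary screen of methionyl-tRNA synthetase; the read-out is not stated. The test concentration is not given. The values are filed as inhibition. Size under these conditions: about 68,000 compounds, about 24 of them at 50% or above in at least one test.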
C: 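Whole-cell assay for inhibitors of Mycobacterium tuberculosis growth, labelled Cornell in the record; the read-out is not stated. The concentration is filed as 10 mM, unlikely as a test dose, so the dose is not known. Higher means stronger inhibition (inferred from two other growth screens of the library). Size under these conditions: about 53,000 compounds, about 900 of them at 50% or above in at least one test.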

The chains behind the UniProt entries cited, without tags or fusion partners.
UniProt E9BF75, entry or part of it: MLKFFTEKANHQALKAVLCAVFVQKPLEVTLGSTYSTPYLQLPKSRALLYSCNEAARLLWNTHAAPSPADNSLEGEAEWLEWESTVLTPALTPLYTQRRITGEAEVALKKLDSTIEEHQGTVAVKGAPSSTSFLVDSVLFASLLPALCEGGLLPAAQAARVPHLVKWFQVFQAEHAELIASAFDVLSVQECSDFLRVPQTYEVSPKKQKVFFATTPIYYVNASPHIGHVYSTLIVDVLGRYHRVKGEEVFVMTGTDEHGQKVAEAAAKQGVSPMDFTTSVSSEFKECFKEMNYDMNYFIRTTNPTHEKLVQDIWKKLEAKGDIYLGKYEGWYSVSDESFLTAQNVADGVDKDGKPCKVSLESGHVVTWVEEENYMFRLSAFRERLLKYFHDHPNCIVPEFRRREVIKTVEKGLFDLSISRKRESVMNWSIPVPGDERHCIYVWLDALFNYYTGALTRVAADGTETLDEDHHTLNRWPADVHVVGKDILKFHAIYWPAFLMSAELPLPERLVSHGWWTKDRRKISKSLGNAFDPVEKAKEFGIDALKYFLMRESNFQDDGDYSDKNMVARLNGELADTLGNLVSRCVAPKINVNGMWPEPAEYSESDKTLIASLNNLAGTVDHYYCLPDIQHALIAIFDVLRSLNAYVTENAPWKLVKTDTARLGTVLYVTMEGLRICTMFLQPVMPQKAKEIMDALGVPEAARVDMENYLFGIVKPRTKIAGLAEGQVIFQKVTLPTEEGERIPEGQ

Results are percentages, as filed.
How 0% and 100% were set is not recorded. Most values in the screen are low, and negative values occur.
Compounds were drawn at random from those tested, without regard to their results.

For CC1CN(c2ncnc3cccc(F)c23)CCO1 (stereo not drawn) the result was A: -13.5%; B: 8.967%; C: -37.43%.
For CNS(=O)(=O)c1cccc(CNC(=O)c2c(C)oc(C)c2C)c1 the result was A: -15.95%; B: 4.861%.
For Cc1nc(C)n(CC2CN(CCOc3ccccc3C#N)CCO2)n1 (stereo not drawn) the result was A: -12.6%; B: 17.63%; C: -62.67%.
For Cc1nncn1CCNC(=O)C1SCCc2sccc21 (stereo not drawn) the result was A: -23.2%; B: 7.796%; C: -1.93%.
For CC(NC(=O)C1CCCC1)c1nncn1C(C)C (stereo not drawn) the result was A: -10.92%; B: 3.733%.
For Cc1ccc(CC(=O)NCC(O)c2cc(Cl)cc(Cl)c2)cn1 (stereo not drawn) the result was A: -39.2%; B: -4.511%; C: 33.8%.
For Cc1cnccc1NC(=O)CCc1ccsc1 the result was A: -21.59%; B: 13.64%.
For O=C(Nc1ccc(CC(=O)N2CCSCC2)cc1)NC1CCCC1 the result was A: 4.041%; B: -0.2688%; C: -35.16%.
For O=C(NC[C@H]1OC[C@@H](NC2CCOCC2)[C@@H]1O)c1cccs1 the result was A: -8.771%; B: 13.74%.
For CC(C)c1ccc(C#N)c(N2CC(C)(C)[C@@](C)(O)C2)n1 the result was A: -20.65%; B: 4.91%; C: 23.89%.
For Cc1ccc(CN(C(=O)NCC2CCS(=O)(=O)C2)C2CC2)o1 (stereo not drawn) the result was A: 1.167%; B: 13.84%; C: -26.49%.
For COC(=O)C1CN(Cc2nc(-c3ccccc3)cs2)C[C@@H](C)O1 (stereo partly drawn) the result was A: -24.92%; B: 0.2688%.
For CC(=O)Nc1cccc2c1ccn2CC(=O)Nc1ncc[nH]1 the result was A: 6.239%; B: 5.149%; C: 7.865%.
For CC(C)NCc1cc2n(n1)CCN(C1CCCCC1)C2 the result was A: -48.73%; B: 4.396%.
For c1cnc2c(c1)nc1n2[C@@H](CNCc2nccs2)COC1 the result was A: -22.71%; B: 14.01%; C: 20.69%.
For CCCS(=O)(=O)CC(=O)NC(C)c1cccc(-n2cccn2)c1 (stereo not drawn) the result was A: -49.67%; B: 13.61%; C: 25.36%.
For C[C@H]1CN(c2ccccn2)C[C@@]12CCN(Cc1cccnc1)C2=O.O=C(O)C(F)(F)F.O=C(O)C(F)(F)F the result was A: -8.389%; C: -6.795%.
For Cc1nn(C)c(N(C)C)c1CNC(C)c1cccnc1 (stereo not drawn) the result was A: 14.04%; B: 8.541%.
For COCCn1cc(C(=O)NCCS(N)(=O)=O)c2ccccc21 the result was A: -8.083%; B: 13.97%.
For [H][C@@]12CS(=O)(=O)C[C@]1([H])N(C(=O)c1snnc1C)CCN2CC1CC1 the result was A: 8.317%; C: -14.74%.
For CN(C)CCN1C(=O)CCC12CCCN(C(=O)c1ccncc1F)C2 (stereo not drawn) the result was B: 5.495%.
For Cc1noc(C)c1-c1n[nH]c2c1CN(S(=O)(=O)c1ccsc1)CC2 the result was A: -7.346%; B: 5.775%; C: -13.03%.
For Cc1nc(C(=O)N(Cc2c(C)nn(C)c2C)C(C)C)cs1 the result was A: 1.755%; B: 13.65%; C: 15.1%.
For CN(C)C1CCN(C(=O)c2cc(-c3ccn(C)n3)n3ccccc23)CC1 the result was B: 5.168%.
For Cc1ccc(Sc2ccc(CN3CCC4(CC3)NCCNC4=O)o2)cc1 the result was A: -30.98%; B: 16.33%; C: 6.34%.
For COC(=O)C(c1cc(F)ccc1F)N(C)C(=O)c1ccnc(C)n1 (stereo not drawn) the result was A: -21.52%; B: 15.97%.

2 of the entries, repeated:

- O=C(Nc1ccc(CC(=O)N2CCSCC2)cc1)NC1CCCC1 : A: 4.041%; B: -0.2688%; C: -35.16%
- COC(=O)C(c1cc(F)ccc1F)N(C)C(=O)c1ccnc(C)n1 (stereo not drawn) : A: -21.52%; B: 15.97%

Data taken from ChEMBL document CHEMBL3988442, “University of Dundee, Small-Polar-MMV Screening Library” (2021).